In the supplement of paper PMC9578143, “Small-Molecule Ebselen Binds to YTHDF Proteins Interfering with the Recognition of N^6-Methyladenosine-Modified RNAs” (ACS Pharmacology & Translational Science, 2022):
Some of the results follow. Plates or batches differ in their baseline, so values are only roughly comparable.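 Hits were defined as a z-score below −3.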

Biological target: T1, YTHDF1 YTH domain (aa 365-554) (UniProt Q9BYJ9)
T1 sequence (whole entry): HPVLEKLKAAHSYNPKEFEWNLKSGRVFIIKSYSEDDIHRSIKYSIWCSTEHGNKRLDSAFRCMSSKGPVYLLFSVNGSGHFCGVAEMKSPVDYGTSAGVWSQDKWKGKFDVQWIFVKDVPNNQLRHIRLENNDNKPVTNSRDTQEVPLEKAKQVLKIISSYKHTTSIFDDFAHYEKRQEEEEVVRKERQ
Assay: tryptophan fluorescence intensity z-score (mean); higher = higher fluorescence, less quenching (negative = binding / quenching)
Conditions: 10 µM

Tryptophan fluorescence intensity z-score, inactive:
CC(C)=CCC/C(C)=C/CC/C(C)=C/CC/C(C)=C/CC/C(C)=C/CC/C(C)=C/CC/C(C)=C/CC/C(C)=C/CC/C(C)=C/CO (plate: M 19-20) 0.539, CCOC(=O)CCCCCCCCCCCCC1C=CCC1 (configuration not stated) (plate: M 23-24) 0.5, O=C(O)C(S)C(S)C(=O)O (configuration not stated) (plate: M 23-24) 0.181, CCn1nc(C(=O)O)c(=O)c2cc3c(cc21)OCO3 (plate: M 1-2) 0.114, Cc1cc(/C=C/c2ccc3cc(N(C)C)ccc3[n+]2C)c(C)n1-c1ccccc1 (plate: M 5-6) -0.575, O=c1c(-c2ccc(O)cc2)coc2c([C@@H]3O[C@H](CO)[C@@H](O)[C@H](O)[C@H]3O)c(O)ccc12 (plate: M 23-24) 0.501, C[C@H]1CC2C3CCC4=CC(=O)C=C[C@]4(C)[C@@]3(F)[C@@H](O)C[C@]2(C)[C@@]1(O)C(=O)COP(=O)(O)O (some centres not stated) (plate: M 11-12) -0.146, C[C@@H]1O[C@@H](O[C@H]2[C@H](O[C@H]3CC[C@@]4(C)[C@@H](CC[C@]5(C)[C@@H]4CC=C4[C@@H]6CC(C)(C)CC[C@]6(C(=O)O[C@@H]6O[C@H](CO[C@@H]7O[C@H](CO)[C@@H](O[C@@H]8O[C@@H](C)[C@H](O)[C@@H](O)[C@H]8O)[C@H](O)[C@H]7O)[C@@H](O)[C@H](O)[C@H]6O)CC[C@]45C)[C@]3(C)CO)OC[C@H](O)[C@@H]2O)[C@H](O)[C@H](O)[C@H]1O (plate: M 19-20) -0.0879, O=C(O[C@@H]1Cc2c(O)cc(O)cc2O[C@@H]1c1cc(O)c(=O)c2c(O)c(O)cc([C@H]3Oc4cc(O)cc(O)c4C[C@H]3O)c2c1)c1cc(O)c(O)c(O)c1 (plate: M 15-16) -0.779, COC(=O)CC[C@@H](C)[C@H]1CC[C@H]2[C@@H]3CC[C@@H]4C[C@H](O)CC[C@]4(C)[C@H]3C[C@H](O)[C@]12C (plate: M 15-16) -0.843, CC(C)C1=CC2=CC[C@@H]3[C@](C)(CCC[C@@]3(C)C(=O)O)[C@H]2CC1 (plate: M 19-20) 0.364, C[C@H]1C[C@H]2[C@@H]3CCC4=CC(=O)C=C[C@]4(C)[C@@]3(F)[C@@H](O)C[C@]2(C)[C@@]1(O)C(=O)CO (plate: M 1-2) 0.483, C[C@@H]1O[C@@H](OC[C@H]2OC(Oc3c(-c4ccc(O)c(O)c4)oc4cc(O)cc(O)c4c3=O)[C@H](O)[C@@H](O)[C@@H]2O)[C@H](O)[C@H](O)[C@H]1O (some centres not stated) [RUTOSIDE(rutin)] (plate: M 1-2) 0.816, CO[C@@]12[C@H](COC(N)=O)C3=C(C(=O)C(C)=C(N)C3=O)N1C[C@@H]1N[C@@H]12 (plate: M 1-2) 0.378, CC(C(=O)O)c1ccc(N2Cc3ccccc3C2=O)cc1 (configuration not stated) (plate: M 3-4) 0.159, Cc1ccc(Cl)c(Nc2ccccc2C(=O)O)c1Cl (plate: M 3-4) -0.145, CCN1CCN(C(=O)N[C@@H](C(=O)N[C@@H]2C(=O)N3C(C(=O)O)=C(CSc4nnnn4C)CS[C@H]23)c2ccc(O)cc2)C(=O)C1=O (plate: M 7-8) 0.0156, CC1CC(OC(=O)C(O)c2ccccc2)CC(C)(C)N1C (configuration not stated) (plate: M 13-14) 0.387, OC[C@H]1O[C@@H](n2cnc3c(NCc4ccco4)ncnc32)[C@H](O)[C@@H]1O (plate: M 17-18) 0.256, C1CCN2C[C@@H]3C[C@@H](CN4CCCC[C@@H]34)[C@H]2C1 (plate: M 1-2) 0.719, COc1cc(NS(C)(=O)=O)ccc1Nc1c2ccccc2nc2ccccc12 (plate: M 7-8) -0.898, CCN1CCN(c2cc3c(cc2F)c(=O)c(C(=O)O)cn3C2CC2)CC1 (plate: M 9-10) -0.438, Cc1nnc(NS(=O)(=O)c2ccc(N)cc2)s1 (plate: M 5-6) -0.423, CC1(O)CC2C(CC1O)C2(C)C (configuration not stated) (plate: M 19-20) 0.467, C[C@@H]1C[C@H]2[C@@H]3CCC4=CC(=O)C=C[C@]4(C)[C@@]3(F)[C@@H](O)C[C@]2(C)[C@@]1(O)C(=O)CO (plate: M 1-2) 0.0204, OC1(c2ccc(Cl)c(C(F)(F)F)c2)CCN(CCCC(c2ccc(F)cc2)c2ccc(F)cc2)CC1 (plate: M 11-12) -0.656, NC1=NCCN1CC(=O)O (plate: M 21-22) 0.233, CC1(C)O[C@@H]2C[C@H]3[C@@H]4CCC5=CC(=O)C=C[C@]5(C)[C@@]4(F)[C@@H](O)C[C@]3(C)[C@]2(C(=O)CO)O1 (plate: M 5-6) -0.263, O=C(O)CCCc1ccccc1 (plate: M 23-24) 0.422, COc1ccc2cc(C(C)C(=O)O)ccc2c1 (configuration not stated) (plate: M 3-4) 0.103, C[C@H](CCC(=O)O)[C@H]1CC[C@H]2[C@@H]3CC[C@@H]4C[C@H](O)CC[C@]4(C)[C@H]3C[C@H](O)[C@]12C (plate: M 13-14) 0.165, CC(C)C[C@@H]1NC(=O)[C@H](CCCN)NC(=O)[C@H](C(C)C)NC(=O)[C@H](Cc2ccc(O)cc2)N[C@@H](CCC(=O)O)C(=O)N[C@@H](CC(N)=O)C(=O)[C@@H](Cc2ccccc2)NC(=O)[C@H](Cc2ccccc2)NC(=O)[C@@H]2CCCN2C(=O)[C@@H](Cc2ccccc2)NC1=O (plate: M 5-6) -0.35, CC12CCC(CC1)C(C)(C)O2 (plate: M 21-22) 0.244, COC(=O)CC[C@@H](C)[C@H]1CC[C@H]2[C@@H]3[C@H](O)C[C@@H]4C[C@H](O)CC[C@]4(C)[C@H]3C[C@H](O)[C@]12C (plate: M 17-18) -1.12, COc1c(O)cccc1O (plate: M 15-16) 0.458, O=C(O)C1=CCCNC1 (plate: M 21-22) 0.427, Cc1cc(CC(=O)O)n(C)c1C(=O)c1ccc(Cl)cc1 (plate: M 5-6) -0.381, CCCCCCCCCCCCCCCC(=O)O[C@@H]1[C@@H](O)[C@@H](O)[C@@H]([C@H](NC(=O)[C@@H]2C[C@@H](CCC)CN2C)[C@H](C)Cl)O[C@@H]1SC (plate: M 13-14) 0.663, CO/N=C(\C(=O)N[C@@H]1C(=O)N2C(C(=O)O)=C(COC(N)=O)CS[C@H]12)c1ccco1 (plate: M 7-8) 0.0892, Nc1ccc(S(=O)(=O)Nc2ccnn2-c2ccccc2)cc1 (plate: M 23-24) 0.27, CC(=O)O[C@@H]1CC2C(C)(C)C(=O)C3OC3[C@]2(C)C2CC[C@@]3(C)[C@H](c4ccoc4)OC(=O)C4OC43[C@@]21C (some centres not stated) (plate: M 13-14) 0.227, CC1Cc2ccccc2N1NC(=O)c1ccc(Cl)c(S(N)(=O)=O)c1 (configuration not stated) (plate: M 3-4) 0.0143, CCC(=O)c1c(O)cc(O)cc1O (plate: M 23-24) -0.106, O=c1cc[nH]c(=S)[nH]1 (plate: M 23-24) 0.178, CCC(C(=O)O)c1ccccc1 (configuration not stated) (plate: M 23-24) 0.524, CC1(C)CC[C@]2(C(=O)O)CC[C@]3(C)C(=CC[C@@H]4[C@@]5(C)CC[C@H](O)[C@@](C)(CO)[C@@H]5CC[C@]43C)[C@@H]2C1 (plate: M 19-20) 0.856, CC[C@H]1OC(=O)[C@H](C)[C@@H](O[C@H]2C[C@@](C)(OC)[C@@H](O)[C@H](C)O2)[C@H](C)[C@@H](O[C@@H]2O[C@H](C)C[C@H](N(C)C)[C@H]2O)[C@](C)(O)C[C@@H](C)[C@@H]2N[C@@H](COCCOC)O[C@H]([C@H]2C)[C@]1(C)O (plate: M 9-10) -0.105, O=C1CC2(CCCC2)CC(=O)N1CCCCN1CCN(c2ncccn2)CC1 (plate: M 11-12) -0.213, CC(C)/C(O)=C1/C(=O)O[C@@H](c2ccoc2)[C@]2(C)C(O)[C@@H](O)[C@@]34OC5(C)OC67CC(C)(C(O)[C@]6(O)[C@@H](O)[C@]3(O5)C12)[C@H](CC(=O)O)[C@]74C (some centres not stated) (plate: M 13-14) -0.00908, CS(=O)(=O)CCCCN=C=S (plate: M 21-22) 0.0317, C[C@H]1C[C@@H]2[C@H]([C@@H](O)C[C@@]3(C)[C@H]2CC[C@]3(O)C(=O)CO)[C@@]2(C)C=CC(=O)C=C12 (plate: M 3-4) 0.142, O=[N+]([O-])c1cccc2cn[nH]c12 (plate: M 23-24) 0.0804, COc1ccccc1OCC(O)CN1CCN(CC(=O)Nc2c(C)cccc2C)CC1 (configuration not stated) (plate: M 11-12) -0.186, O=C(Nc1ccccc1)Nc1ccccc1 (plate: M 15-16) 0.348, COc1cc([C@@H]2c3cc4c(cc3[C@@H](O[C@@H]3O[C@@H]5CO[C@@H](C)O[C@H]5[C@H](O)[C@H]3O)[C@H]3COC(=O)[C@H]23)OCO4)cc(OC)c1O (plate: M 7-8) 0.382, CCCNCC(O)COc1ccccc1C(=O)CCc1ccccc1 (configuration not stated) (plate: M 9-10) -0.405, NC(=O)C(c1ccccc1)(c1ccccc1)[C@@H]1CCN(CCc2ccc3c(c2)CCO3)C1 (plate: M 11-12) 1.04
